# From the supplement of paper PMC10735217
# Counter-ions that a name gives are not always drawn. The list shows a part of the results. This data set is noisy: repeats of one test often differ as much as different tests do.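 The human kidney-derived cells carry a stably integrated construct of eight TEAD-binding elements driving luciferase, read by luminescence in a drug-repurposing library screen. A compound counts as a hit when its signal is more than five robust Z scores above the plate mean.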
# System: HEK293A TEAD-LUC reporter
# Test: TEAD-luciferase reporter activity (YAP activation), robust Z score vs plate; higher = stronger YAP/TEAD activation
# Conditions: 24 h
SMILES,TEAD-luciferase reporter activity (compound concentration: 200 nM),TEAD-luciferase reporter activity (compound concentration: 2 uM),TEAD-luciferase reporter activity (compound concentration: 10 uM)
CC(C)(Oc1ccc(Cl)cc1)C(=O)OCCOC(=O)c1cccnc1 [etofibrate],inactive: -0.552,inactive: -2.4,inactive: -2.24
CC(C)CN(C[C@@H](O)[C@H](Cc1ccccc1)NC(=O)[C@H](CC(N)=O)NC(=O)c1ccc2ccccc2n1)C(=O)NC(C)(C)C,inactive: -1.72,inactive: -0.997,inactive: 2.33
N=C(N)Nc1nc(CSCCN/C=N/S(=O)(=O)c2ccc(Br)cc2)cs1,inactive: -0.673,inactive: -1.39,inactive: -0.74
N=C(N)Nc1nc(CSCCN/C=N/S(=O)(=O)c2ccc(Br)cc2)cs1 [Ebrotidine],–,inactive: -0.324,–
CC1(C)OB(O)c2cc(NC(=O)c3ccc(F)cc3C(F)(F)F)ccc21,inactive: -0.766,inactive: 1.24,active: 6.03
Cc1cnc(CNCC2(F)CCN(C(=O)c3ccc(F)c(Cl)c3)CC2)nc1,inactive: 3.18,inactive: 0.748,inactive: 1.2
C=CCNC(=O)c1c[nH]c2cccnc12,inactive: -0.183,–,inactive: 0.513
CCC(=O)Nc1nnc(S(N)(=O)=O)s1,inactive: -0.843,inactive: -0.592,inactive: 0.285
Cc1ccc(C(=O)N2CCC3(CC2)NC(=O)c2ccccc2O3)cc1,inactive: -0.79,–,inactive: -1.06
CCN1CC2CN(C)CC(C1)C2OC(=O)c1ccc(Cl)cc1 (centres undefined),inactive: 0.533,inactive: -0.62,active: 8.03
Nc1ncc(-c2ccncc2)nc1Nc1ccc2[nH]ccc2c1,inactive: 0.53,inactive: -0.468,inactive: -0.492
C[N+](C)([O-])CCC=C1c2ccccc2CCc2ccccc21 [Amitriptylinoxide],inactive: -0.515,inactive: -0.275,inactive: 1.03
CN1CCN(c2c(F)cc3c(=O)c(C(=O)O)cn(CCF)c3c2F)CC1 [fleroxacin],inactive: -0.608,inactive: -0.945,inactive: 0.767
O=C(O)CCc1cc(I)c(Oc2ccc(O)cc2)c(I)c1,inactive: -2.21,inactive: -0.389,inactive: -0.187
CC1(C)N=C(N)N=C(N)N1c1ccc(Cl)cc1 [Cycloguanil (hydrochloride)],inactive: -0.0965,–,inactive: -0.722
CC1(C)N=C(N)N=C(N)N1c1ccc(Cl)cc1,–,inactive: -0.252,–
COC(OC)[C@@]1(C)Oc2ccc(N)cc2[C@@H](N/C(=N/C#N)NCc2ccccc2)[C@@H]1O,inactive: -1.04,inactive: -0.692,inactive: 1.4
Cc1ccc(C(=O)NC2CCN(c3nc4ncccc4o3)CC2)cc1,inactive: -1.38,–,inactive: 0.649
CC(C)(Sc1cc(C(C)(C)C)c(O)c(C(C)(C)C)c1)Sc1cc(C(C)(C)C)c(OCC(=O)O)c(C(C)(C)C)c1,inactive: 4.03,inactive: -1.1,inactive: -0.584

# Only TEAD-luciferase reporter activity (compound concentration: 2 uM) and TEAD-luciferase reporter activity (compound concentration: 10 uM) (2 entries from above):
SMILES | TEAD-luciferase reporter activity (compound concentration: 2 uM) | TEAD-luciferase reporter activity (compound concentration: 10 uM)
N=C(N)Nc1nc(CSCCN/C=N/S(=O)(=O)c2ccc(Br)cc2)cs1 [Ebrotidine] | inactive: -0.324 | –
Nc1ncc(-c2ccncc2)nc1Nc1ccc2[nH]ccc2c1 | inactive: -0.468 | inactive: -0.492

# (listing goes on)

SMILES,TEAD-luciferase reporter activity (compound concentration: 200 nM),TEAD-luciferase reporter activity (compound concentration: 2 uM),TEAD-luciferase reporter activity (compound concentration: 10 uM)
O=S(=O)([O-])Oc1ccc(C(c2ccc(OS(=O)(=O)[O-])cc2)c2ccccn2)cc1 [Sodium picosulfate],inactive: -1.13,inactive: 0.375,inactive: -0.144
C#Cc1ccc(-c2ccccc2F)cc1,inactive: 0.499,inactive: -0.683,inactive: -0.766
O=P(O)(O)C(CCCc1cccc(Oc2ccccc2)c1)S(=O)(=O)O (centres undefined),inactive: -1.32,inactive: -1.04,inactive: -0.235
"CC(=O)[C@@]1(O)CC[C@H]2[C@@H]3C[C@H](C)C4=CC(=O)CC[C@]4(C)[C@H]3CC[C@@]21C [medroxyprogesterone, Inkine]",–,inactive: -0.514,–
CC(=O)[C@@]1(O)CC[C@H]2[C@@H]3C[C@H](C)C4=CC(=O)CC[C@]4(C)[C@H]3CC[C@@]21C,inactive: 0.0479,–,inactive: 2.26
CN1C(=O)c2c(nn(Cc3ccc(-c4cccc(F)n4)cc3)c2Nc2ccccc2)N2C1=N[C@@H]1CCC[C@@H]12,inactive: -0.488,inactive: -0.232,inactive: 1.52
COc1cc(CC(=O)NCCCc2ccc(C)c(C)c2)ccc1OCCN [Davasaicin],inactive: -0.378,inactive: -1.54,inactive: 1.5
COc1cc(/C=C/C2=C(C(=O)[O-])N3C(=O)C(NC(=O)/C(=N/O)c4csc(N)n4)[C@@H]3SC2)on1 (some centres undefined),inactive: -0.912,inactive: 0.46,inactive: 2.23
Nc1cc(C(F)(F)F)c(-c2nc(N3CCOCC3)nc(N3CCOCC3)n2)cn1,inactive: 0.401,inactive: -1.34,inactive: -1.27
Cc1c(C)c2ccc(OCc3nnc(C(C)C)s3)cc2oc1=O [Atibeprone],inactive: -0.773,inactive: -0.161,inactive: 2.16
Nn1cnc2cc3ccccc3cc2c1=O [Centazolone],inactive: 0.945,inactive: 0.413,inactive: -1.24
NS(=O)(=O)c1cc2c(cc1Cl)NC(CC1CCCC1)NS2(=O)=O (centres undefined) [Cyclopenthiazide],inactive: -1.18,inactive: 0.176,inactive: 2.88
NS(=O)(=O)c1cc2c(cc1C(F)(F)F)NC(Cc1ccccc1)NS2(=O)=O (centres undefined) [Bendrofluazide],inactive: -0.565,–,inactive: 4.14
NS(=O)(=O)c1cc2c(cc1C(F)(F)F)NC(Cc1ccccc1)NS2(=O)=O (centres undefined) [bendroflumethiazide],–,inactive: -0.3,–
C1COC(NC(C2CC2)C2CC2)=N1 [rilmenidine],inactive: -1.25,inactive: 0.623,inactive: 0.931
CC(C)c1ccc2c(c1)c(SC(C)(C)C)c(CC(C)(C)C(=O)O)n2Cc1ccc(Cl)cc1,inactive: -0.399,inactive: 0.383,inactive: -1.33
O=C(CNC(=O)c1cccc(-c2ccc(C(F)(F)F)cc2)c1)NC1CCCC1,inactive: -1.57,–,inactive: 4.28
CC12CCC3c4ccc(O)cc4CC(CCCCCCCCCS(=O)CCCC(F)(F)C(F)(F)F)C3C1CCC2O (centres undefined) [fulvestrant],inactive: -1.34,inactive: -1.1,inactive: -0.74
Cn1nnc(-c2ccc3c(c2)[nH]c2nc(Cc4ccccc4)nc(N[C@H]4CC[C@H](N)CC4)c23)n1,inactive: -0.888,active: 5.31,inactive: 1.88

SMILES,TEAD-luciferase reporter activity (compound concentration: 200 nM),TEAD-luciferase reporter activity (compound concentration: 2 uM),TEAD-luciferase reporter activity (compound concentration: 10 uM)
"Nc1ccc(OCCCCCOc2ccc(N)cc2)cc1 [DAPP, Acucela]",inactive: 0.785,–,inactive: -0.51
Nc1cccc(CN2CCC(OC(=O)NC(c3ccccc3)c3ccccc3)CC2)c1,inactive: 0.866,inactive: -1.08,inactive: 1.31
CN1CCN(C2=NS(=O)(=O)c3cc(Cl)ccc3N2)CC1,inactive: -1.33,inactive: 0.106,inactive: 0.0494
CCOc1cc(C(C)(C)C)ccc1C1=N[C@@](C)(c2ccc(Cl)cc2)[C@@](C)(c2ccc(Cl)cc2)N1C(=O)N1CCN(CCCS(C)(=O)=O)CC1,inactive: -0.967,inactive: -0.293,inactive: 2.66
Cc1cn(-c2cc(NC(=O)c3ccc(C)c(Nc4nccc(-c5cccnc5)n4)c3)cc(C(F)(F)F)c2)cn1 [nilotinib],inactive: -0.878,inactive: -1.56,inactive: 1.5
Nc1cc(-n2cc(C(=O)O)c(=O)c3cc(F)c(N4CC(N)C4)c(Cl)c32)c(F)cc1F,inactive: -0.748,inactive: -1.66,inactive: 1.78
c1cn2cc(-c3ccc4cn[nH]c4c3)nc(Nc3ccc(N4CCOCC4)cc3)c2n1 [Entospletinib dimesylate],inactive: -2.29,inactive: -2.61,inactive: -1.34
O=C(O)COC[C@H]1CC[C@H](COC(=O)N(c2ccccc2)c2ccc(Cl)cc2)CC1 [Ralinepag],inactive: -1.6,inactive: 1.29,inactive: 0.554
Cc1ccc2cc(C(=O)NC3(C(=O)N[C@H](Cc4ccccc4)C(=O)NCC4CCN(CC5CCOCC5)CC4)CCCC3)sc2c1 [Ibodutant],inactive: -0.68,inactive: 0.257,inactive: -0.334
COc1ccc(Nc2nc(N)c(C(=O)c3ccc(OC)cc3)s2)cc1,inactive: -0.207,inactive: -1.25,inactive: 1.27
CCCCCN(C(=O)c1ccccc1)c1ccc2nc(CCC)n(Cc3ccc(-c4ccccc4-c4nnn[nH]4)cc3)c(=O)c2c1,–,inactive: -1.24,–
CCc1cc(C(N)=O)ccc1-n1nc(C(C)C)c2c(-n3cnc(-c4cnn(C)c4)c3)ccnc21,inactive: 3.61,inactive: 0.37,inactive: -1.39
CCOC(=O)COC1CCN(C(=O)[C@H](C)NC(=O)c2ccc(/C(N)=N/O)cc2)CC1,inactive: -0.519,inactive: -1.74,inactive: -1.51
Cc1cccc(C)c1CN1CCCC12Cc1ccccc1CNC2=O (centres undefined),inactive: 0.165,–,inactive: 4.74
C=CCC1(C)C(=O)N(c2ccccc2)c2ccccc21 (centres undefined),inactive: -0.495,inactive: -1.29,inactive: -0.427
COc1cc(S(C)=O)ccc1-c1nc2ncccc2[nH]1 (centres undefined) [sulmazole],inactive: -1.88,inactive: -1,inactive: -2.05
NS(=O)(=O)c1ccc(N2N=C(c3ccc(F)cc3)CC2c2ccccc2F)cc1 (centres undefined) [analog of E-6087],inactive: -1.85,inactive: -1.16,inactive: -0.956
CNS(=O)(=O)c1cc(OC)c(OC)c(C(=O)NC[C@@H]2CCCN2C)c1 [Sulverapride],inactive: -1.74,inactive: -1.29,inactive: -0.872
